The results in this text go back to PMC5344696.

These are yes or no findings as the source states them, for the method shown. Binding seen in cells or lysates may run through a third protein. A result given as binding can be weak or reduced; the word gives no strength. Sequences can lack the tags named with a protein.

The experiment deals with T1, _(FLAG)EME1 (human) (UniProt Q96AY2).
T1 sequence: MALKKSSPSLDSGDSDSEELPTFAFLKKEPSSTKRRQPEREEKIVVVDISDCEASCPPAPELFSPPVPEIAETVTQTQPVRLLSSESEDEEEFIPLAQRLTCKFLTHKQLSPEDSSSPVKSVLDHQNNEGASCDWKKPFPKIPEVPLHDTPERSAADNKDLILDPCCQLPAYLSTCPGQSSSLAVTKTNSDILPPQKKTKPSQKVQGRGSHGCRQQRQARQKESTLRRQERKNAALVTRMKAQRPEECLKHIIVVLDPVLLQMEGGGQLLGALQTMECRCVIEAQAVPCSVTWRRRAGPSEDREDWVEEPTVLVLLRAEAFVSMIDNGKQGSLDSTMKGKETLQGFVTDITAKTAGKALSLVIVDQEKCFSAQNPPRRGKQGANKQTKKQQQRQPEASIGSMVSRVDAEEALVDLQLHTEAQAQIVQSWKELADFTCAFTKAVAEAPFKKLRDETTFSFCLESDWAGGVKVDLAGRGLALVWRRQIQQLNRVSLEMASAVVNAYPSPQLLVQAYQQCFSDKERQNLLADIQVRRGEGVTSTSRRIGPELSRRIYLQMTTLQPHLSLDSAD
Description: affinity co-purification; from Hi5 cells infected with baculovirus; anti-FLAG M2 resin, HiTRAP SP HP, HiTRAP Q HP.

Take MUS81^Δ86 (human) (domain or fragment): the binding result was “binds”.
